# Measurements reported in article PMC5996148.
# The list shows a part of the results.
# Tests used:
# Experiment in all cases: protein microarray (ProtoArray v5.0), streptavidin-Alexa Fluor 647
# Conditions in all cases: 3'-biotin; 20 mM Tris (pH 7.5), 5 mM MgCl2, 100 mM KCl, 0.1% Tween-20, A/T-rich and random oligonucleotide blockers; temperature not stated; high values mean tight binding
# [1] = test system: Zinc finger protein castor homolog 1 (human)
# [2] = test system: Zinc transporter 7 (human)
# [3] = test system: cAMP-dependent protein kinase inhibitor gamma (human)
# [4] = test system: cAMP-dependent protein kinase type I-beta regulatory subunit (human)
# [5] = test system: cAMP-dependent protein kinase type II-beta regulatory subunit (human)
# [6] = test system: cDNA FLJ30744 fis, clone FEBRA2000378. (human)
# [7] = test system: cDNA clone IMAGE:2906290, complete cds (human)
# [8] = test system: cDNA clone IMAGE:4292790 (human)
# [9] = test system: cDNA clone IMAGE:4396549 (human)
# [10] = test system: cDNA clone IMAGE:5263629 (human)
sequence,measurement,setting,value
GGGGACAGGGGTATGGGGAGGGG [G4-3 biotinylated (CtG)],binding signal,[1],-0.335 z-score
same,binding signal,[2],-0.32 z-score
same,binding signal,[3],-0.339 z-score
same,binding signal,[4],-0.341 z-score
same,binding signal,[5],-0.336 z-score
same,binding signal,[6],-0.326 z-score
same,binding signal,[7],-0.337 z-score
same,binding signal,[8],-0.34 z-score
same,binding signal,[9],-0.338 z-score
same,binding signal,[10],-0.338 z-score
